These are yes or no findings as the source states them, for the method shown. Binding seen in cells or lysates may run through a third protein. Some results given as binding are weak or reduced against the parent protein; the word gives no strength.

By UniProt entry, the sequences of proteins in these tests, tags left out.
UniProt P42866: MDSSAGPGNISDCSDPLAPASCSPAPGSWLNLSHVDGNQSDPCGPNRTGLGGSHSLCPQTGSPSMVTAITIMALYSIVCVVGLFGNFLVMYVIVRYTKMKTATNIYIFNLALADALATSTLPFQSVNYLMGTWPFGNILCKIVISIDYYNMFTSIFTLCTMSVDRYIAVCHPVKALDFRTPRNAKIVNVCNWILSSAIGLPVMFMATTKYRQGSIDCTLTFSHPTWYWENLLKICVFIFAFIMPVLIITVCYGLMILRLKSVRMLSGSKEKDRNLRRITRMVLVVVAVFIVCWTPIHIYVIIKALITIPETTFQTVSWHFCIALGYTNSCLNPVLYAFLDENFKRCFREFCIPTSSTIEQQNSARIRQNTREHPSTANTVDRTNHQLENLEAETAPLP
UniProt P32300: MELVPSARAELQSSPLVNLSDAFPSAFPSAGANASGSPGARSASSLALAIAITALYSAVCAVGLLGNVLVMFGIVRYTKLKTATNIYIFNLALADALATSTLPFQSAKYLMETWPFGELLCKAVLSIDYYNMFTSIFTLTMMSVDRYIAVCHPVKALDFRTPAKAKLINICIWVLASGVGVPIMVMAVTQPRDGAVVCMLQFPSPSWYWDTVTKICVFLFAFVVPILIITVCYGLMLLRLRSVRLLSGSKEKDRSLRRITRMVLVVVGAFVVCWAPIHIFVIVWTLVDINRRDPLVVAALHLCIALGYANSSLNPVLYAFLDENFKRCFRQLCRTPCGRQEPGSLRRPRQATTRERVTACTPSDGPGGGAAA

1 substance from publication PMC4341027 can be followed below.

The assay addresses mu opioid receptor fused at its C-terminus to the red fluorescent protein mcherry (MOR-mcherry) (mouse) (UniProt P42866). In words: co-IP; membrane preparations (500 ug) from hippocampus of double knock-in mice solubilized in Tris-HCl 50 mM pH 7.4, 100 mM NaCl, 10 % CHAPS, protease inhibitors, 1 h at 4 °C; immunoprecipitated with 1 ug rabbit polyclonal anti-mcherry antibodies, G protein Sepharose; Western blot with rabbit polyclonal anti-eGFP antibodies. Background: In western blotting, separated proteins are transferred to a membrane and probed.

In the case of “delta opioid receptor fused at its C terminus to the enhanced green fluorescent protein (DOR-eGFP) (from UniProt P32300 1-372)”, the binding entry was “binds”.
